Test results: the supplement of paper PMC4604168 (melanoma cell lines)
Some of the results follow. Single values are uncertain, as repeats are few or missing.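 The apoptosis fraction was the count of cleaved-PARP antibody-stained nuclei relative to all DNA-stained nuclei, imaged in 1,536-well plates. Screening doses were set so most cells survived, and baseline and induced cleaved-PARP levels vary greatly across cell lines.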

Key:
Assay in all cases: cleaved PARP positive nuclei fraction relative to DMSO control; melanoma cells; higher = more apoptosis
Details in all cases: library dose: low library concentration; 72 h
MZ2-MEL = tested on: MZ2-MEL
MeWo = tested on: MeWo
RPMI7951 = tested on: RPMI7951
RVH-421 = tested on: RVH-421
SkMel28 = tested on: SkMel28
SkMel30 = tested on: SkMel30
SkMel5 = tested on: SkMel5
UACC257 = tested on: UACC257
UACC62 = tested on: UACC62

SMILES	cleaved PARP positive nuclei fraction (MZ2-MEL)	cleaved PARP positive nuclei fraction (MeWo)	cleaved PARP positive nuclei fraction (RPMI7951)	cleaved PARP positive nuclei fraction (RVH-421)	cleaved PARP positive nuclei fraction (SkMel28)	cleaved PARP positive nuclei fraction (SkMel30)	cleaved PARP positive nuclei fraction (SkMel5)	cleaved PARP positive nuclei fraction (UACC257)	cleaved PARP positive nuclei fraction (UACC62)
NC(=O)Nc1cc(-c2cccc(F)c2)sc1C(=O)N[C@H]1CCCNC1 + COc1cc2ncnc(Nc3ccc(Oc4ccccc4)cc3)c2cc1OC [SrcI1] (first compound 0.02 µM, partner dose 2 µM)	53.4%	81%	196%	75.2%	164%	66.7%	29.7%	58.1%	41.4%
O=C(CCCCCCC(=O)Nc1ccccc1)NO [vorinostat] + COc1ccc(-c2ccc3c(N4CCOCC4)nc(N4C[C@@H](C)O[C@@H](C)C4)nc3n2)cc1CO [KU0063794] (first compound 0.08 µM, partner dose 0.02 µM)	32%	29.3%	46.5%	55.6%	109%	19.7%	34.5%	269%	592%
Cc1ccc(NC(=O)c2cccc(N(C)C)c2)cc1NC(=O)c1ccc(O)cc1 + COc1ccc(COc2ccc(Cc3cnc(N)nc3N)cc2OC)cc1 [GW2580] (first compound 2 µM, partner dose 1 µM)	116%	101%	42.8%	62.4%	87.3%	14.5%	207%	120%	79.7%
Cc1nc(Nc2ncc(C(=O)Nc3c(C)cccc3Cl)s2)cc(N2CCN(CCO)CC2)n1 [dasatanib] + CCN(CC)CCCCNc1ncc2cc(-c3cc(OC)cc(OC)c3)c(NC(=O)NC(C)(C)C)nc2n1 [PD173074] (first compound 0.004 µM, partner dose 0.1 µM)	151%	112%	114%	167%	261%	26.2%	31.3%	272%	91.6%
OCCn1cc(-c2cnc3nnn(Cc4ccc5ncccc5c4)c3n2)cn1 + O=c1cc(-c2cccc3c2Sc2ccccc2S3)oc(N2CCOCC2)c1 [KU55933] (first compound 1 µM, partner dose 1 µM)	81.6%	84%	169%	94.4%	77.3%	164%	241%	61%	150%
OCCn1cc(-c2cnc3nnn(Cc4ccc5ncccc5c4)c3n2)cn1 + O=S(=O)(c1ccccc1)N(CC(F)(F)F)c1ccc(C(O)(C(F)(F)F)C(F)(F)F)cc1 [T0901317] (first compound 1 µM, partner dose 1.4 µM)	149%	56.8%	76.8%	43.4%	120%	237%	63.6%	201%	42.2%
CC(C)(C)c1cnc(CSc2cnc(NC(=O)C3CCNCC3)s2)o1 + Cc1cc([N+](=O)[O-])ccc1NS(=O)(=O)c1cc(Cl)ccc1Cl [FH535] (first compound 0.01 µM, partner dose 1 µM)	142%	27.5%	72.9%	56.5%	89%	167%	67.8%	86.8%	48.9%
Cc1ccc(NC(=O)c2cccc(N(C)C)c2)cc1NC(=O)c1ccc(O)cc1 + COc1ccc2c(c1)CCC1C2CCC2(C)C(NCCCCCCN3C(=O)C=CC3=O)CCC12 [U73122] (first compound 2 µM, partner dose 0.4 µM)	103%	51.6%	101%	54.3%	120%	93.2%	122%	127%	49.1%
Cc1nc(Nc2ncc(C(=O)Nc3c(C)cccc3Cl)s2)cc(N2CCN(CCO)CC2)n1 [dasatanib] + COc1cc2ncnc(Nc3ccc(Oc4ccccc4)cc3)c2cc1OC [SrcI1] (first compound 0.004 µM, partner dose 2 µM)	166%	116%	134%	78.5%	452%	33.2%	134%	197%	158%
CC1(C)NC(=O)N(c2ccc([N+](=O)[O-])c(C(F)(F)F)c2)C1=O [nilutamide] + COc1ccc2c(c1)CCC1C2CCC2(C)C(NCCCCCCN3C(=O)C=CC3=O)CCC12 [U73122] (first compound 1 µM, partner dose 0.4 µM)	77.5%	217%	139%	115%	34.5%	28%	63.1%	42.5%	29.3%
CO[C@@H]1[C@H](N(C)C(=O)c2ccccc2)C[C@H]2O[C@]1(C)n1c3ccccc3c3c4c(c5c6ccccc6n2c5c31)C(=O)NC4 [Midostaurin] + COC(=O)c1sccc1S(=O)(=O)Nc1ccc(Nc2ccccc2)cc1OC [GSK0660] (first compound 0.08 µM, partner dose 1 µM)	127%	28.5%	96.7%	91.7%	84.9%	31%	33.8%	117%	153%
CO[C@@H]1[C@H](N(C)C(=O)c2ccccc2)C[C@H]2O[C@]1(C)n1c3ccccc3c3c4c(c5c6ccccc6n2c5c31)C(=O)NC4 [Midostaurin] + CCc1ccc(CCOc2ccc(CC3SC(=O)NC3=O)cc2)nc1 [pioglitazone] (first compound 0.08 µM, partner dose 2 µM)	149%	56.1%	64.7%	93%	80.9%	77.1%	29.4%	68.9%	39.3%
O=C(CCCCCCC(=O)Nc1ccccc1)NO [vorinostat] + CCc1ccc(CCOc2ccc(CC3SC(=O)NC3=O)cc2)nc1 [pioglitazone] (first compound 0.08 µM, partner dose 2 µM)	118%	75.4%	87.9%	82.5%	95.6%	80.6%	80.4%	186%	34.3%
Cc1cc(N2CCOCC2)cc2[nH]c(-c3c(NC[C@@H](O)c4cccc(Cl)c4)cc[nH]c3=O)nc12 + COc1cc(N2CCC(N3CCN(C)CC3)CC2)ccc1Nc1ncc(Cl)c(Nc2ccccc2S(=O)(=O)C(C)C)n1 [NVP-TAE684] (first compound 0.2 µM, partner dose 0.08 µM)	243%	146%	92.8%	59.3%	136%	42%	100%	99%	70.6%
Cc1cc(N2CCOCC2)cc2[nH]c(-c3c(NC[C@@H](O)c4cccc(Cl)c4)cc[nH]c3=O)nc12 + COc1ccc(COc2ccc(Cc3cnc(N)nc3N)cc2OC)cc1 [GW2580] (first compound 0.2 µM, partner dose 1 µM)	111%	115%	121%	161%	88.5%	211%	20.3%	174%	142%
C#Cc1cccc(Nc2ncnc3cc(OCCOC)c(OCCOC)cc23)c1 [erlotinib] + Cn1cc(/C=C2\C(=O)Nc3cccnc32)c2ccccc21 [GW441756] (first compound 0.8 µM, partner dose 0.4 µM)	52.3%	76.6%	89.7%	111%	175%	54.6%	403%	128%	236%
C#Cc1cccc(Nc2ncnc3cc(OCCOC)c(OCCOC)cc23)c1 [erlotinib] + COc1ccc(-c2ccc3c(N4CCOCC4)nc(N4C[C@@H](C)O[C@@H](C)C4)nc3n2)cc1CO [KU0063794] (first compound 0.8 µM, partner dose 0.02 µM)	53.1%	131%	42.7%	156%	201%	139%	29.8%	265%	89.9%
Cc1cc(N2CCOCC2)cc2[nH]c(-c3c(NC[C@@H](O)c4cccc(Cl)c4)cc[nH]c3=O)nc12 + COc1ccc2c(c1)CCC1C2CCC2(C)C(NCCCCCCN3C(=O)C=CC3=O)CCC12 [U73122] (first compound 0.2 µM, partner dose 0.4 µM)	27.6%	55.3%	42.4%	31.3%	98.5%	204%	49.6%	66.3%	41.2%
Nc1cccc2c1CN(C1CCC(=O)NC1=O)C2=O (configuration not stated) [lenalidomide] + c1cc(-c2cnn3cc(-c4ccc(OCCN5CCCCC5)cc4)cnc23)ccn1 [Dorsomorphin] (first compound 1 µM, partner dose 0.4 µM)	36.4%	151%	77.8%	48.3%	95.4%	39.9%	59.7%	146%	180%
Cn1c(Nc2ccc(C(F)(F)F)cc2)nc2cc(Oc3ccnc(-c4ncc(C(F)(F)F)[nH]4)c3)ccc21 + O=c1cc(-c2cccc3c2Sc2ccccc2S3)oc(N2CCOCC2)c1 [KU55933] (first compound 0.08 µM, partner dose 1 µM)	173%	80.8%	79.7%	77.4%	261%	21.3%	35.8%	671%	75.1%
OCCn1cc(-c2cnc3nnn(Cc4ccc5ncccc5c4)c3n2)cn1 + COc1cc(N2CCC(N3CCN(C)CC3)CC2)ccc1Nc1ncc(Cl)c(Nc2ccccc2S(=O)(=O)C(C)C)n1 [NVP-TAE684] (first compound 1 µM, partner dose 0.08 µM)	69.1%	102%	40.6%	111%	210%	145%	125%	28.4%	56.4%
Cn1cncc1[C@@](N)(c1ccc(Cl)cc1)c1ccc2c(c1)c(-c1cccc(Cl)c1)cc(=O)n2C [tipifarnib] + COc1ccc(-c2ccc3c(N4CCOCC4)nc(N4C[C@@H](C)O[C@@H](C)C4)nc3n2)cc1CO [KU0063794] (first compound 0.01 µM, partner dose 0.02 µM)	68.7%	59.4%	91.9%	147%	72.3%	122%	68.7%	455%	150%
O=C(Nc1cccc(Cl)c1)Nc1ncc(CCNc2ncnc3ccsc23)s1 + CCCCCCCCCCCC1=C(O)C(=O)C=C(O)C1=O [Embelin] (first compound 0.0008 µM, partner dose 1.2 µM)	23.5%	26.3%	62.8%	127%	175%	50.3%	82.9%	41.3%	117%

As entered above.
For cleaved PARP positive nuclei fraction (UACC257), Cc1nc(Nc2ncc(C(=O)Nc3c(C)cccc3Cl)s2)cc(N2CCN(CCO)CC2)n1 [dasatanib] + COc1cc2ncnc(Nc3ccc(Oc4ccccc4)cc3)c2cc1OC [SrcI1] (first compound 0.004 µM, partner dose 2 µM) is listed with 197%
For cleaved PARP positive nuclei fraction (MZ2-MEL), OCCn1cc(-c2cnc3nnn(Cc4ccc5ncccc5c4)c3n2)cn1 + COc1cc(N2CCC(N3CCN(C)CC3)CC2)ccc1Nc1ncc(Cl)c(Nc2ccccc2S(=O)(=O)C(C)C)n1 [NVP-TAE684] (first compound 1 µM, partner dose 0.08 µM) is listed with 69.1%
